Results as given in patent US20120245092A1.
No constants are given. Whether binding was seen depends on the method and setting. Some entries that bind do so weakly or less than the wild type. Tags and fused reporters may be left off the sequences shown.

Columns and labels:
[1] = target: T1, NS5A-TP2 (two-hybrid prey) (human) (UniProt Q7Z4H3); assay: yeast two-hybrid screening of human testis and foetal brain cDNA libraries
T1 sequence: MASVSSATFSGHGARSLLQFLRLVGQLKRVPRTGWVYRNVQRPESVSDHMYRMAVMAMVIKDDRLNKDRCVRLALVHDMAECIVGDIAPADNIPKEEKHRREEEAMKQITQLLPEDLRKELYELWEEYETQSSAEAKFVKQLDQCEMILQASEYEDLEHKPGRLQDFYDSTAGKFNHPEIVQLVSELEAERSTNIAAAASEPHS

[2] = target: T1, NS5A-TP2 (two-hybrid prey) (human); assay: yeast two-hybrid screening against LexA-R5G42, brain cDNA library; the cell is the number of clones selected
[3] = target: T1, NS5A-TP2 (two-hybrid prey) (human); assay: yeast two-hybrid screening against LexA-R5G42, testes cDNA library; the cell is the number of clones selected
[4] = target: CNAγ C-terminal fragment (calcineurin A gamma clone selected from the testes cDNA library, two-hybrid prey) (human) (UniProt P48454); assay: as above
[5] = target: CNAβ C-terminal fragment (calcineurin A beta clone selected from the testes cDNA library, two-hybrid prey) (human) (UniProt P16298); assay: as above
[6] = target: CNAγ C-terminal fragment (calcineurin A gamma clone selected from the testes cDNA library, two-hybrid prey) (human) (UniProt P48454); assay: yeast two-hybrid screening of human testis cDNA library
[7] = target: CNAβ C-terminal fragment (calcineurin A beta clone selected from the testes cDNA library, two-hybrid prey) (human) (UniProt P16298); assay: as above
[8] = target: CNAγ C-terminal fragment (calcineurin A gamma clone selected from the testes cDNA library, two-hybrid prey) (human) (UniProt P48454); assay: yeast two-hybrid
[9] = target: CNAβ C-terminal fragment (calcineurin A beta clone selected from the testes cDNA library, two-hybrid prey) (human) (UniProt P16298); assay: yeast two-hybrid
[10] = target: T1, NS5A-TP2 (two-hybrid prey) (human); assay: yeast two-hybrid assay, higher sensitivity (FIG. 14)
[11] = target: CNA construct CNA3, two-hybrid prey (Homo sapiens (Human)) (UniProt P16298); assay: as above
[12] = target: T1, NS5A-TP2 (two-hybrid prey) (human); assay: yeast two-hybrid assay (FIG. 14)
[13] = target: CNA construct CNA3, two-hybrid prey (Homo sapiens (Human)) (UniProt P16298); assay: yeast two-hybrid assay (FIG. 14)
[14] = target: CNAγ C-terminal fragment (calcineurin A gamma clone selected from the testes cDNA library, two-hybrid prey) (human) (UniProt P48454); assay: yeast two-hybrid assay (FIG. 9)
[15] = target: CNAβ C-terminal fragment (calcineurin A beta clone selected from the testes cDNA library, two-hybrid prey) (human) (UniProt P16298); assay: yeast two-hybrid assay (FIG. 9)
[16] = target: T1, NS5A-TP2 (two-hybrid prey) (human); assay: yeast two-hybrid assay (FIG. 9)

Measured: binding

B1: LexA-R5G42 fusion protein (peptide aptamer R5G42 as two-hybrid bait) (designed binder, not shown: large carriers)
chain: MVKQIESKTAFQEALDAAGDKLVVVDFSATWCGPSAVTFAVCALGPCKMIKPFFHSLSEKYSNVIFLEVDVDDCQDVASECEVKCMPTFQFFKKGQKVGEFSGANKEKLEATINELV
binds: [1] | [2] | [3] | [4] | [5] | [6] | [7] | [8] | [9] | [10] | [11] | [12] | [13]

B2: R5G42 mutant C2 (LexA fusion, two-hybrid bait) (designed binder, not shown: small tags and cut ends)
chain: MVKQIESKTAFQEALDAAGDKLVVVDFSATWCGPSAVTFAVCALGPCKMIKLFFHSLSEKYSNVIFLEVDVDDCQDVASECEVKCMPTFQFFKKGQKVGEFSGANKEKLEATINELV
binds: [11] | [14] | [15] | [13]

B3: R5G42 mutant C7 (LexA fusion, two-hybrid bait) (designed binder, not shown: small tags and cut ends)
chain: MVKQIESKTAFQEALDAAGDKPVVVDFSATWCGPSAVTFAVCALGPCKMIKPFFHSLSEKYSNVIFLEVDVDDCQDVASECEVKCMPTFQFFKKGQKVGEFSGANKEKLEATINELV
binds: [11] | [14] | [15] | [13]

B4: R5G42 mutant C8 (LexA fusion, two-hybrid bait) (designed binder, not shown: small tags and cut ends)
chain: MVKQIESKTAFQEALDAAGDKLVVVDFSATWCGPSAVTIAVCALGPCKMIKPFFHSLSEKYSNVIFLEVDVDDCQDVASECEVKCMPTFQFFKKGQKVGEFSGANKEKLEATINELV
binds: [11] | [14] | [15] | [13]

B5: R5G42 mutant N9 (LexA fusion, two-hybrid bait) (designed binder, not shown: small tags and cut ends)
chain: MVKQIESKTAFQEALDAAGDKLVVVDFSAAWCGPSAVTFAVCALGPCKMIKPFFHSLSEKYSNVIFLEVDVDDCQDVASECEVKCMPTFQFFKKGQKVGEFSGANKEKLEATINELV
binds: [10] | [11] | [16] | [12] | [13]
